The full ranking holds about 33,000 sequences; the median of “E-score (-0.5 to 0.5)” is about -0.016, and the highest 2% start at about 0.3. This is one part of the list.
Target: T1, Yer184c (UniProt P39961)
T1 sequence: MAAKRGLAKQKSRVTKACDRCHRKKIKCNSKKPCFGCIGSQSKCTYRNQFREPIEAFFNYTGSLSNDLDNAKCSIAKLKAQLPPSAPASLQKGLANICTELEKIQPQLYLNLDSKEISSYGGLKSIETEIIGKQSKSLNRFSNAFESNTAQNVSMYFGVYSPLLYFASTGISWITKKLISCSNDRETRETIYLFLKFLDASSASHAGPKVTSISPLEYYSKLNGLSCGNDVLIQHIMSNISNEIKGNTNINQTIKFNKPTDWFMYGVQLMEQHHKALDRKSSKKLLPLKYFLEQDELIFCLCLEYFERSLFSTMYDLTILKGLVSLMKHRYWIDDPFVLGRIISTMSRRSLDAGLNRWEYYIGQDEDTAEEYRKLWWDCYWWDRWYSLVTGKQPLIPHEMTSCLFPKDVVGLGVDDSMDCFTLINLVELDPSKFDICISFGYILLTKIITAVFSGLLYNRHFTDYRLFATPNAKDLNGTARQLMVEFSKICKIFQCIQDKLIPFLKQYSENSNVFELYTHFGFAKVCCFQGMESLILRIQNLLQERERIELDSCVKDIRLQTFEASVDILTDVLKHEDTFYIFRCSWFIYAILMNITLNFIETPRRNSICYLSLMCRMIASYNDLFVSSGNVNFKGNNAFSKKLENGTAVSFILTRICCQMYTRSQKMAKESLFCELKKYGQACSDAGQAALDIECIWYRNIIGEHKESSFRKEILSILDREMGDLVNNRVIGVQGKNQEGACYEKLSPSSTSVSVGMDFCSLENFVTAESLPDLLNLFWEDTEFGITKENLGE
Assay: PBM E-score (8-mer binding enrichment) (E-score (-0.5 to 0.5)); higher = stronger / more preferred TF binding
Settings: protein concentration: 100 nM; construct: GST-full length
Procedure, shortened: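 Full-length yeast transcription factors or their DNA-binding domains, GST-tagged and expressed with PURExpress, were applied at about 100-200 nM to universal all-10-mer Agilent arrays. These arrays had been made double-stranded by primer extension on fresh or once-stripped slides. Detection used fluorescent anti-GST, normalisation used masliner, and E-scores for ungapped eight-base words pooled with reverse complements came from the Universal PBM Analysis Suite.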

Row | Sequence | PBM E-score
1 | CGACCCGC | -0.0185
2 | ACGCCTGG | -0.117
3 | GTTTTTTA | 0.15
4 | TAATTGAA | 0.0804
5 | CCAGCGCC | -0.184
6 | AGACGAAA | 0.219
7 | AATCCCAT | -0.136
8 | GATCCCGC | 0.0602
9 | CGAGATCG | 0.0842
10 | AAGATGCA | -0.127
11 | CCGAGTCC | 0.244
12 | CGCGTCCA | 0.0157
13 | GGATACCC | -0.0888
14 | CGCCTTTC | -0.0663
15 | ATAAATGA | 0.137
16 | CAGAGCTG | -0.242
17 | AATCAGAC | 0.144
18 | AGTCATAA | 0.0175
19 | CTGGGAAA | 0.0167
20 | GGAGAAAA | 0.0592
21 | AGATGACA | -0.0514
22 | TCATCTAA | 0.0759
23 | CCACAACG | -0.111
24 | GCCGTAAA | 0.339
25 | CCGGGGCG | 0.198

Row | Sequence | PBM E-score
26 | CAATCGTG | -0.0171
27 | CATCCACG | -0.119
28 | ATTCTTTA | 0.0489
29 | GCCATGCA | -0.0622
30 | GGTCGAAC | 0.0383
31 | GGTAGTAA | -0.118
32 | AAGGTCGA | -0.146
33 | GCGCGCTA | 0.00775
34 | GTATCTCA | 0.151
35 | AGATTGCG | -0.014
36 | CACCGTCA | 0.00763
37 | CTTATAAA | 0.174
38 | CGCAAACA | 0.108
39 | CAGTGGCC | -0.0943
40 | CCCCTTGC | -0.326
41 | CTCCTGTA | -0.0268
42 | CAAATAGC | 0.0894
43 | ACGACCGC | -0.149
44 | ATGGCTGC | -0.188
45 | GTCTAGTA | -0.0761
46 | ACTAGTTA | 0.0593
47 | ACGGAACG | 0.212
48 | CCTAATAC | 0.0643
49 | TCAGAAGA | 0.0255
50 | CTCTATGA | -0.158

Row | Sequence | PBM E-score
51 | AGGAGAAA | -0.0807
52 | AATAGACA | -0.0396
53 | AAATTGCG | 0.0977
54 | GACCACTA | -0.0657
55 | GTGTACAA | 0.136
56 | ACCGGAGT | 0.186
57 | GGCTTTAC | 0.207
58 | ACAAGTCC | -0.0162
59 | AGGTTTGG | -0.153
60 | ATCTAGAT | 0.00195
61 | CAGTGCCA | -0.328
62 | ATGAACTC | 0.0654
63 | ATCAGTCA | 0.156
64 | CTCTTAGC | 0.0811
65 | GAATAACA | 0.199
66 | ATTACCAC | 0.105
67 | AGGAAAAT | 0.0993
68 | AATATATC | 0.292
69 | GAAGCTTA | 0.0282
70 | AACTGACA | 0.00973
71 | GAGACGGC | 0.24
72 | CGGCACCA | 0.256
73 | CTATGTAC | -0.224
74 | AATACCAA | 0.129
75 | GGATCAGA | -0.0512

Four entries picked at random from those above:
Row | Sequence | PBM E-score
61 | CAGTGCCA | -0.328
68 | AATATATC | 0.292
72 | CGGCACCA | 0.256
59 | AGGTTTGG | -0.153

(list continues)

Row | Sequence | PBM E-score
76 | GATTAAGA | 0.135
77 | AACTAATC | 0.0714
78 | ACGCTCCC | -0.0299
79 | AAGCCATA | -0.153
80 | GAACGGTC | -0.0132
81 | TCTTTTCA | 0.101
82 | CTACTCAG | -0.113
83 | TACGTGAA | -0.0153
84 | CTAAGGGA | -0.118
85 | AGCGGTCC | 0.0927
86 | AATGCCTG | -0.123
87 | AACAAGAG | -0.133
88 | CATGCCAC | -0.224
89 | AAAATTAA | 0.168
90 | CTTTCACA | 0.189
91 | GCGGCCTA | -0.177
92 | AGCGGCGC | -0.00549
93 | CGACATCA | 0.131
94 | GGGAGCCA | -0.261
95 | AGATAGTA | 0.223
96 | GAAGGGTC | -0.172
97 | GCCCTTAA | -0.0336
98 | CCCGACGG | 0.0798
99 | ATAAGTTC | 0.181
100 | CATCACAA | 0.00903

Row | Sequence | PBM E-score
101 | TATCGCCA | -0.0705
102 | TATCGACA | 0.00835
103 | ACAAGTCT | -0.148
104 | CACTCGTC | -0.0494
105 | AGACATAT | -0.00394
106 | GTGATCCA | -0.0784
107 | GAACTACA | 0.0653
108 | AAAGCCGG | 0.351
109 | CGATTCCA | 0.0177
110 | AACATTCC | -0.0121
111 | AACCTTTG | -0.00777
112 | GGTTAACC | 0.0536
113 | AAGCGTCA | -0.0183
114 | GGCCGCCC | -0.119
115 | ATGAAACC | 0.133
116 | CGAGGTTC | 0.116
117 | AGGTTACC | 0.159
118 | CGGAGTTC | 0.265
119 | AATTGTGA | 0.109
120 | AGTCCCAA | -0.11
121 | CCATAACA | 0.128
122 | AGTCTTAA | -0.107
123 | ATTTCTAA | 0.0963
124 | CCCAGAAC | -0.126
125 | AGCGCGAC | -0.18

A second format for some results above:
Row	Sequence	PBM E-score
16	CAGAGCTG	-0.242
17	AATCAGAC	0.144
83	TACGTGAA	-0.0153
88	CATGCCAC	-0.224

A few values from the entries so far.
Entry for AGCGCGAC under PBM E-score: -0.18
Entry for TATCGACA under PBM E-score: 0.00835

(listing goes on)

Row | Sequence | PBM E-score
126 | ATTGGGTC | -0.0134
127 | GTTGAGTA | 0.0258
128 | CTAGCTAA | -0.0599
129 | ACCGCTCG | -0.135
130 | AATCCTAC | -0.0783
131 | CATCAAGC | -0.016
132 | AGTCCAGC | -0.114
133 | ATTCGGCA | 0.318
134 | GGGATTTA | 0.0651
135 | ATGAGCTA | 0.0119
136 | AAGCTGTG | -0.0976
137 | GTTAAATA | 0.123
138 | ACCATCAT | -0.139
139 | CAGCACGA | -0.119
140 | GAACGGCA | 0.193
141 | GCCGCTAC | -0.0152
142 | AGTATGTG | -0.00422
143 | CACGTAAC | -0.226
144 | TGTGAGAA | 0.0227
145 | TCCACCCA | -0.325
146 | GAGAGTCA | -0.175
147 | ACGGGATC | 0.0948
148 | TAAGTCTA | -0.259
149 | ATCAGCTC | -0.0229
150 | ATGTAGTA | 0.15

Row | Sequence | PBM E-score
151 | GCACTGAA | -0.0305
152 | CTTTAGGA | -0.0775
153 | TGTTGAAA | 0.235
154 | CGGCCCCC | -0.189
155 | CTAACCCA | -0.0813
156 | CACGCGAA | -0.0594
157 | CACAAGTG | -0.21
158 | AATCTGCA | -0.102
159 | ATTTATGA | 0.231
160 | ATCCTTTA | 0.025
161 | ATGATCGG | 0.183
162 | ACGGTTAA | 0.0948
163 | GTGTATGA | -0.0898
164 | AGAGGTAT | 0.136
165 | GAACAAAA | 0.276
166 | TCTTTGAA | 0.151
167 | CACTATCA | -0.158
168 | ACCCAGGA | -0.108
169 | ATTTCTAG | 0.222
170 | CCCACATA | -0.264
171 | AACCAAAA | 0.0925
172 | CAGTTCAA | -0.104

— the supplement of paper PMC3334620
